Results reported in doi:10.1101/2024.07.11.602925.
No constants are given. Whether binding was seen depends on the method and setting. In cells and extracts the contact can be indirect. Some binding calls cover weakened binding; strength is not graded here.

Sequences of proteins named here, by UniProt entry; tags and fusion partners are left off.
UniProt Q9NR12: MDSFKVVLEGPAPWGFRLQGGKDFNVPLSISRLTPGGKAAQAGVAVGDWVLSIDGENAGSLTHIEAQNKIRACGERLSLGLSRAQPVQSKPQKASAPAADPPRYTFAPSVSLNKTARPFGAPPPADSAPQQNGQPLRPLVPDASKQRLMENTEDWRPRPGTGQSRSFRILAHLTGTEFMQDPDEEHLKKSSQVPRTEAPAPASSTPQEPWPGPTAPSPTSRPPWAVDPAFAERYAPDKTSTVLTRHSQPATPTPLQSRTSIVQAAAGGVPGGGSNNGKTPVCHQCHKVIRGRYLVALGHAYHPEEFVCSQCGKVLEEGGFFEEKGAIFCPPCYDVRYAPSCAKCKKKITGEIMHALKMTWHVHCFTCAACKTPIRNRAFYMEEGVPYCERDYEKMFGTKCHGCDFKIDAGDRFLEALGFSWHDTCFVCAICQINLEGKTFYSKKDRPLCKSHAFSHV
UniProt Q9Y3P9: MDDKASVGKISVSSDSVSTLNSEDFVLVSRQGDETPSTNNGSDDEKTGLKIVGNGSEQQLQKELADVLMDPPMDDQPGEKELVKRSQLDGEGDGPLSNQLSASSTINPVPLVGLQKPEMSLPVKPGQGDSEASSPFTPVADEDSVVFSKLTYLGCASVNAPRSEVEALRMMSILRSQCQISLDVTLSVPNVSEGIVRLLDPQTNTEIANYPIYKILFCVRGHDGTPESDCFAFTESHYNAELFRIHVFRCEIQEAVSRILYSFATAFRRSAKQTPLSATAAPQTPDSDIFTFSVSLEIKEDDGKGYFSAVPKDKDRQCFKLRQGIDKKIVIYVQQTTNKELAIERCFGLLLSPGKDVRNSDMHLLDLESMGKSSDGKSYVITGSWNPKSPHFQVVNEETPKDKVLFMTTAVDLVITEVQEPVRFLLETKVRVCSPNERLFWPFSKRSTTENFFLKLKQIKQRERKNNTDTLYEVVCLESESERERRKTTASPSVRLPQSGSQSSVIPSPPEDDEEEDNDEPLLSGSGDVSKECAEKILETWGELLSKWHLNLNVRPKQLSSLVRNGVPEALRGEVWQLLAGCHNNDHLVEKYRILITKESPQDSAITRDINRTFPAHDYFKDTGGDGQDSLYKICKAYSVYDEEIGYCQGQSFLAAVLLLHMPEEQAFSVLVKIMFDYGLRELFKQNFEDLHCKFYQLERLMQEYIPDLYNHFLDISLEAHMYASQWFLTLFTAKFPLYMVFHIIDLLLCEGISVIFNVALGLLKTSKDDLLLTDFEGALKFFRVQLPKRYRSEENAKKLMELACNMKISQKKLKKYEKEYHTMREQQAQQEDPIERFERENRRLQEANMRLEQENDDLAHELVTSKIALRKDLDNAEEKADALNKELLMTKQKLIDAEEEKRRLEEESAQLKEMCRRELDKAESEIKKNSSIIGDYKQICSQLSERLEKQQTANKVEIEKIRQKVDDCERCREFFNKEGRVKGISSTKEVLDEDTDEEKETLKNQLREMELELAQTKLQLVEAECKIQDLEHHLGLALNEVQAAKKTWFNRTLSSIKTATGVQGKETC

Tests used:
Test in all cases: pull-down
[1] = biological target: GST fused to the APP cytosolic tail mutant FFE689-9AAA (UniProt P05067)
[2] = biological target: GST fused to the APP cytosolic tail mutant Y682A (UniProt P05067)
[3] = biological target: GST fused to the APP cytosolic tail mutant D664A (UniProt P05067)
[4] = biological target: GST fused to the APP cytosolic tail mutant Y687A (UniProt P05067)
[5] = biological target: GST fused to the WT cytosolic tail of APP (649-695) (UniProt P05067)
[6] = biological target: GST fused to the APP cytosolic tail mutant N684A (UniProt P05067)

Measured: binding

PDLIM7 (from UniProt Q9NR12 1-457)
binds: all assays above

RABGAP1 (from UniProt Q9Y3P9 1-1069)
binds: [5]
no binding: [2] | [4] | [6]

B1: NUMB (protein, UniProt P49757 1-651)
chain: MNKLRQSFRRKKDVYVPEASRPHQWQTDEEGVRTGKCSFPVKYLGHVEVDESRGMHICEDAVKRLKAERKFFKGFFGKTGKKAVKAVLWVSADGLRVVDEKTKDLIVDQTIEKVSFCAPDRNFDRAFSYICRDGTTRRWICHCFMAVKDTGERLSHAVGCAFAACLERKQKREKECGVTATFDASRTTFTREGSFRVTTATEQAEREEIMKQMQDAKKAETDKIVVGSSVAPGNTAPSPSSPTSPTSDATTSLEMNNPHAIPRRHAPIEQLARQGSFRGFPALSQKMSPFKRQLSLRINELPSTMQRKTDFPIKNAVPEVEGEAESISSLCSQITNAFSTPEDPFSSAPMTKPVTVVAPQSPTFQANGTDSAFHVLAKPAHTALAPVAMPVRETNPWAHAPDAANKEIAATCSGTEWGQSSGAASPGLFQAGHRRTPSEADRWLEEVSKSVRAQQPQASAAPLQPVLQPPPPTAISQPASPFQGNAFLTSQPVPVGVVPALQPAFVPAQSYPVANGMPYPAPNVPVVGITPSQMVANVFGTAGHPQAAHPHQSPSLVRQQTFPHYEASSATTSPFFKPPAQHLNGSAAFNGVDDGRLASADRHTEVPTGTCPVDPFEAQWAALENKSKQRTNPSPTNPFSSDLQKTFEIEL
binds: [5]
not listed: [1]
no binding: all other assays above
